Results published in the supplement of paper PMC4604168 (melanoma cell lines).
The list shows a part of the results. Single values are uncertain, as repeats are few or missing.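 The apoptosis fraction was the count of cleaved-PARP antibody-stained nuclei relative to all DNA-stained nuclei, imaged in 1,536-well plates. Screening doses were set so most cells survived, and baseline and induced cleaved-PARP levels vary greatly across cell lines.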

Each compound was assayed on MZ2-MEL (assay: cleaved PARP positive nuclei fraction relative to DMSO control; melanoma cells; higher = more apoptosis). Conditions: library dose: low library concentration; 72 h.

Compound	cleaved PARP positive nuclei fraction [%]
N#CC[C@H](C1CCCC1)n1cc(-c2ncnc3[nH]ccc23)cn1 [ruxolitinib] + C=CCNC1=C2C[C@@H](C)C[C@H](OC)[C@H](O)[C@@H](C)/C=C(\C)[C@H](OC(N)=O)[C@@H](OC)/C=C\C=C(/C)C(=O)NC(=CC1=O)C2=O [Tanespimycin] (first compound 1 µM, partner dose 0.002 µM)	135
Cc1cn(-c2cc(NC(=O)c3ccc(C)c(Nc4nccc(-c5cccnc5)n4)c3)cc(C(F)(F)F)c2)cn1 [nilotinib] + COCC[n+]1c2c(n(Cc3cnccn3)c1C)C(=O)c1ccccc1C2=O [YM155] (first compound 0.2 µM, partner dose 0.0004 µM)	115
Cc1cn(-c2cc(NC(=O)c3ccc(C)c(Nc4nccc(-c5cccnc5)n4)c3)cc(C(F)(F)F)c2)cn1 [nilotinib] + CCN(CC)CCNC(=O)c1c(C)[nH]c(/C=C2\C(=O)Nc3ccc(F)cc32)c1C [sunitinib] (first compound 0.2 µM, partner dose 0.4 µM)	34.9
COc1cc([C@@H]2c3cc4c(cc3[C@@H](O[C@@H]3O[C@@H]5CO[C@@H](C)O[C@H]5[C@H](O)[C@H]3O)[C@H]3COC(=O)[C@H]23)OCO4)cc(OC)c1O [etoposide] + CNC(=O)c1cc(Oc2ccc(NC(=O)Nc3ccc(Cl)c(C(F)(F)F)c3)cc2)ccn1 [sorafenib] (first compound 0.02 µM, partner dose 0.4 µM)	81.1
Cc1cc(Nc2cc(N3CCN(C)CC3)nc(Sc3ccc(NC(=O)C4CC4)cc3)n2)n[nH]1 [Tozasertib] + CN1CCN(c2ccc3nc(-c4c(N)c5c(F)cccc5[nH]c4=O)[nH]c3c2)CC1 [Dovitinib] (first compound 0.006 µM, partner dose 0.1 µM)	170
COc1cc([C@@H]2c3cc4c(cc3[C@@H](O[C@@H]3O[C@@H]5CO[C@@H](C)O[C@H]5[C@H](O)[C@H]3O)[C@H]3COC(=O)[C@H]23)OCO4)cc(OC)c1O [etoposide] + Nc1cccc2c1CN(C1CCC(=O)NC1=O)C2=O [lenalidomide] (first compound 0.02 µM, partner dose 1 µM)	172
CC[C@]1(O)C[C@H]2CN(CCc3c([nH]c4ccccc34)[C@@](C(=O)OC)(c3cc4c(cc3OC)N(C=O)[C@H]3[C@@](O)(C(=O)OC)[C@H](OC(C)=O)[C@]5(CC)C=CCN6CC[C@]43[C@@H]65)C2)C1 [vincristine] + Cc1cn(-c2cc(NC(=O)c3ccc(C)c(Nc4nccc(-c5cccnc5)n4)c3)cc(C(F)(F)F)c2)cn1 [nilotinib] (first compound 0.0001 µM, partner dose 0.2 µM)	95.8
N#CC[C@H](C1CCCC1)n1cc(-c2ncnc3[nH]ccc23)cn1 [ruxolitinib] + Nc1cccc2c1CN(C1CCC(=O)NC1=O)C2=O [lenalidomide] (first compound 1 µM, partner dose 1 µM)	96.4
N#CC[C@H](C1CCCC1)n1cc(-c2ncnc3[nH]ccc23)cn1 [ruxolitinib] + COCC[n+]1c2c(n(Cc3cnccn3)c1C)C(=O)c1ccccc1C2=O [YM155] (first compound 1 µM, partner dose 0.0004 µM)	88.6
CCCCCCCCCCCCCCCCCCOP(=O)([O-])OC1CC[N+](C)(C)CC1 [Perifosine] + O=C(O)[C@@H]1[O][Sb](=[O])([O][Sb]2(=[O])[O][C@H]([C@H](O)CO)[C@H](O)[C@H](C(=O)O)[O]2)[O][C@H]([C@H](O)CO)[C@@H]1O [stibogluconate] (first compound 0.4 µM, partner dose 2 µM)	120
O=c1[nH]nc(Sc2ncc([N+](=O)[O-])s2)n1-c1ccc2c(c1)OCCO2 + Nc1ncn([C@H]2C[C@H](O)[C@@H](CO)O2)c(=O)n1 [decitabine] (first compound 0.2 µM, partner dose 0.1 µM)	119
O=C(Nc1cc(C(F)(F)F)cc(C(F)(F)F)c1)c1cc(Cl)ccc1O + CC(C)C[C@H](NC(=O)[C@H](Cc1ccccc1)NC(=O)c1cnccn1)B(O)O [Bortezomib] (first compound 0.016 µM, partner dose 0.001 µM)	15.6
N#CC[C@H](C1CCCC1)n1cc(-c2ncnc3[nH]ccc23)cn1 [ruxolitinib] + C[C@]1(O)C[C@@H](c2nc(-c3ccc4ccc(-c5ccccc5)nc4c3)c3c(N)nccn32)C1 [OSI906] (first compound 1 µM, partner dose 0.4 µM)	110
Cc1cc(Nc2cc(N3CCN(C)CC3)nc(Sc3ccc(NC(=O)C4CC4)cc3)n2)n[nH]1 [Tozasertib] + CNC(=O)c1cc(Oc2ccc(NC(=O)Nc3ccc(Cl)c(C(F)(F)F)c3)cc2)ccn1 [sorafenib] (first compound 0.006 µM, partner dose 0.4 µM)	158
Cc1ccc(Nc2nccc(N(C)c3ccc4c(C)n(C)nc4c3)n2)cc1S(N)(=O)=O [Pazopanib] + CN1CCN(c2ccc3nc(-c4c(N)c5c(F)cccc5[nH]c4=O)[nH]c3c2)CC1 [Dovitinib] (first compound 0.4 µM, partner dose 0.1 µM)	159
Cc1cn(-c2cc(NC(=O)c3ccc(C)c(Nc4nccc(-c5cccnc5)n4)c3)cc(C(F)(F)F)c2)cn1 [nilotinib] + Cn1c(=O)n(-c2ccc(C(C)(C)C#N)cc2)c2c3cc(-c4cnc5ccccc5c4)ccc3ncc21 [NVP-BEZ235] (first compound 0.2 µM, partner dose 0.004 µM)	25
O=c1[nH]nc(Sc2ncc([N+](=O)[O-])s2)n1-c1ccc2c(c1)OCCO2 + C=CCNC1=C2C[C@@H](C)C[C@H](OC)[C@H](O)[C@@H](C)/C=C(\C)[C@H](OC(N)=O)[C@@H](OC)/C=C\C=C(/C)C(=O)NC(=CC1=O)C2=O [Tanespimycin] (first compound 0.2 µM, partner dose 0.002 µM)	45.1
CCCCCCCCCCCCCCCCCCOP(=O)([O-])OC1CC[N+](C)(C)CC1 [Perifosine] + C#Cc1cccc(Nc2ncnc3cc(OCCOC)c(OCCOC)cc23)c1 [erlotinib] (first compound 0.4 µM, partner dose 0.8 µM)	46.1
COc1cc([C@@H]2c3cc4c(cc3[C@@H](O[C@@H]3O[C@@H]5CO[C@@H](C)O[C@H]5[C@H](O)[C@H]3O)[C@H]3COC(=O)[C@H]23)OCO4)cc(OC)c1O [etoposide] + C[C@]1(O)C[C@@H](c2nc(-c3ccc4ccc(-c5ccccc5)nc4c3)c3c(N)nccn32)C1 [OSI906] (first compound 0.02 µM, partner dose 0.4 µM)	83.1
CCCCCCCCCCCCCCCCCCOP(=O)([O-])OC1CC[N+](C)(C)CC1 [Perifosine] + C[C@@H](N)c1ccc(C(=O)Nc2ccnc3[nH]ccc23)cc1 [RKI983] (first compound 0.4 µM, partner dose 0.4 µM)	123
CCCCCCCCCCCCCCCCCCOP(=O)([O-])OC1CC[N+](C)(C)CC1 [Perifosine] + CCCS(=O)(=O)Nc1ccc(F)c(C(=O)c2c[nH]c3ncc(Cl)cc23)c1F [PLX4720] (first compound 0.4 µM, partner dose 0.08 µM)	109
O=C(/C=C/c1cccnc1)NCCCCC1CCN(C(=O)c2ccccc2)CC1 + Cc1cc(Nc2cc(N3CCN(C)CC3)nc(/C=C/c3ccccc3)n2)n[nH]1 [ENMD2076] (first compound 0.01 µM, partner dose 0.04 µM)	671
O=C(/C=C/c1cccnc1)NCCCCC1CCN(C(=O)c2ccccc2)CC1 + Clc1ccc(Nc2nnc(Cc3ccncc3)c3ccccc23)cc1 [vatalanib] (first compound 0.01 µM, partner dose 2 µM)	327
Cc1cc(Nc2cc(N3CCN(C)CC3)nc(Sc3ccc(NC(=O)C4CC4)cc3)n2)n[nH]1 [Tozasertib] + CC1(C)CCC(c2ccc(Cl)cc2)=C(CN2CCN(c3ccc(C(=O)NS(=O)(=O)c4ccc(N[C@H](CCN5CCOCC5)CSc5ccccc5)c(S(=O)(=O)C(F)(F)F)c4)cc3)CC2)C1 [ABT263] (first compound 0.006 µM, partner dose 0.4 µM)	366
CCCCCCCCCCCCCCCCCCOP(=O)([O-])OC1CC[N+](C)(C)CC1 [Perifosine] + NC(=O)c1ccc(N(C(N)=O)c2c(F)cccc2F)nc1-c1ccc(F)cc1F [VX702] (first compound 0.4 µM, partner dose 0.4 µM)	77
CCCCCCCCCCCCCCCCCCOP(=O)([O-])OC1CC[N+](C)(C)CC1 [Perifosine] + CC(=O)c1c(C)c2cnc(Nc3ccc(N4CCNCC4)cn3)nc2n(C2CCCC2)c1=O [palbociclib] (first compound 0.4 µM, partner dose 0.04 µM)	28.8
Cc1ccc(Nc2nccc(N(C)c3ccc4c(C)n(C)nc4c3)n2)cc1S(N)(=O)=O [Pazopanib] + O=C(O)c1ccc2c(c1)nc(Nc1cccc(Cl)c1)c1ccncc12 [CX4945] (first compound 0.4 µM, partner dose 0.4 µM)	143
Cc1cn(-c2cc(NC(=O)c3ccc(C)c(Nc4nccc(-c5cccnc5)n4)c3)cc(C(F)(F)F)c2)cn1 [nilotinib] + C=C(c1ccc(C(=O)O)cc1)c1cc2c(cc1C)C(C)(C)CCC2(C)C [Bexarotene] (first compound 0.2 µM, partner dose 2 µM)	54.3

Taken from above.
Value of CCCCCCCCCCCCCCCCCCOP(=O)([O-])OC1CC[N+](C)(C)CC1 [Perifosine] + NC(=O)c1ccc(N(C(N)=O)c2c(F)cccc2F)nc1-c1ccc(F)cc1F [VX702] (first compound 0.4 µM, partner dose 0.4 µM) under cleaved PARP positive nuclei fraction [%]: 77
Value of Cc1cn(-c2cc(NC(=O)c3ccc(C)c(Nc4nccc(-c5cccnc5)n4)c3)cc(C(F)(F)F)c2)cn1 [nilotinib] + CCN(CC)CCNC(=O)c1c(C)[nH]c(/C=C2\C(=O)Nc3ccc(F)cc32)c1C [sunitinib] (first compound 0.2 µM, partner dose 0.4 µM) under cleaved PARP positive nuclei fraction [%]: 34.9
